Literature values in patent US20260275282A1, “CELLS BEING HIGHLY ENRICHED IN SASP FACTORS, AND COMPOSITION COMPRISING SAID CELLS” (EVOMEDIS GMBH, priority 2022, published 2026).
At least one compound was matched to its structure with a doubt left. Numbered stars: 1 amine (or outer) side, 2 acyl side, 3 side chain; on linkers, the order of the positions; unused ones are H or OH. Square brackets hold non-standard residues; d marks the D form. Peptide text beside a SMILES is read from it. NMeTrp(1-OMe) = CN[C@@H](Cc1cn(OC)c2ccccc12)C(=O)O; Butanoyl(2R-oxy,4-CN) = N#CCC[C@@H](O)C(=O)O; X1 = CCCC[C@@H](C)C[C@H](N[*:1])C(=O)[*:2]; NMeL = CN[C@@H](CC(C)C)C(=O)O; NMeA = CN[C@@H](C)C(=O)O

Tests used:
[1] = system: protein secretion (SASP factor secretion); conditions: concentration range that results in significant reduction, preferably inhibition, of SASP factor secretion
[2] = system: human glioma cell lines; conditions: human glioma cell lines (induce senescence)

Structure (SMILES) | Concentration [1] | Concentration [2]
CCCC[C@@H](C)C[C@@H]1NC(=O)[C@H](Cc2cn(OC)c3ccccc23)N(C)C(=O)[C@H](CC(C)C)NC(=O)[C@H](CC(C)C)N(C)C(=O)[C@H](C[C@H](C)CCCC)NC(=O)[C@@H](CCC#N)OC(=O)[C@H](C)N(C)C1=O [HUN-7293] (cyclo(L[NMeTrp(1-OMe)][X1][NMeA][Butanoyl(2R-oxy,4-CN)][X1][NMeL])) | 0.1/1 μM-10.0/100 μM | –
Cn1nnc2c(C(N)=O)ncn2c1=O [Temozolomide] | – | 50 µM
O=c1cc(N2CCOCC2)oc2c(-c3ccccc3)cccc12 [LY294002] | 2/4 μM-20/50 μM | –
